The record followed here is article PMC13623127.

Common to all, as to test: SPR; TNFSF member immobilised by amine coupling on a ProteOn GLH chip, S100 protein as analyte; 25°C; 10 mM HEPES-NaOH, 150 mM NaCl, 0.05% TWEEN 20, 1 mM CaCl2, pH 7.4; both purified
(In SPR one partner is held on a chip, and binding of the other changes the refractive index at the surface.)

Assay [1] addresses BAFF, TNF ligand superfamily member 13B, soluble form (human).
For assay [2], the target named is T1, RANKL, TNF ligand superfamily member 11, soluble form (human).
T1 sequence: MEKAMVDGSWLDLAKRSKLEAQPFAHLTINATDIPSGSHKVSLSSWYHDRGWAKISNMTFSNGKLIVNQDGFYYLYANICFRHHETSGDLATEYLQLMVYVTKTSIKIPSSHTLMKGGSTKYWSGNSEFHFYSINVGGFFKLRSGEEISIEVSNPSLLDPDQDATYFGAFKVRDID

The target of assay [3] is CD40L, TNF ligand superfamily member 5, soluble form (human).
For assay [4], the target named is FasL, TNF ligand superfamily member 6, soluble form (human).
For assay [5], the target named is OX40L, TNF ligand superfamily member 4, soluble form (human).

No constants are given. Whether binding was seen depends on the method and setting.

B1: S100Z (protein, UniProt Q8WXG8 1-99)
chain: MPTQLEMAMDTMIRIFHRYSGKERKRFKLSKGELKLLLQRELTEFLSCQKETQLVDKIVQDLDANKDNEVDFNEFVVMVAALTVACNDYFVEQLKKKGK
In the case of B1, the binding entry in assay [1], in assay [2], in assay [3], in assay [4] and in assay [5] was “no binding (tested: analyte 62.5 nM to 16 μM)” throughout.

B2: S100A14 (protein, UniProt Q9HCY8 1-104)
chain: MGQCRSANAEDAQEFSDVERAIETLIKNFHQYSVEGGKETLTPSELRDLVTQQLPHLMPSNCGLEEKIANLGSCNDSKLEFRSFWELIGEAAKSVKLERPVRGH
Consider B2, for which the binding entry in assay [1], in assay [2], in assay [3], in assay [4] and in assay [5] was “no binding (tested: analyte 62.5 nM to 16 μM)” in each case.

B3: S100A11 (protein, UniProt P31949 1-105)
chain: MAKISSPTETERCIESLIAVFQKYAGKDGYNYTLSKTEFLSFMNTELAAFTKNQKDPGVLDRMMKKLDTNSDGQLDFSEFLNLIGGLAMACHDSFLKAVPSQKRT
As to B3, the binding result in assay [1], in assay [2], in assay [3], in assay [4] and in assay [5] was “no binding (tested: analyte 62.5 nM to 16 μM)” in each case.

B4: S100A15 (protein, UniProt Q86SG5 1-101)
chain: MSNTQAERSIIGMIDMFHKYTGRDGKIEKPSLLTMMKENFPNFLSACDKKGIHYLATVFEKKDKNEDKKIDFSEFLSLLGDIAADYHKQSHGAAPCSGGSQ
On to B4, for which the binding entry in assay [1], in assay [2], in assay [3], in assay [4] and in assay [5] was “no binding (tested: analyte 62.5 nM to 16 μM)” in each case.

B5: S100A7 (protein, UniProt P31151 1-101)
chain: MSNTQAERSIIGMIDMFHKYTRRDDKIEKPSLLTMMKENFPNFLSACDKKGTNYLADVFEKKDKNEDKKIDFSEFLSLLGDIATDYHKQSHGAAPCSGGSQ
Turning to B5, the binding entry in assay [1], in assay [2], in assay [3], in assay [4] and in assay [5] was “no binding (tested: analyte 62.5 nM to 16 μM)” in each case.

B6: S100A3 (protein, UniProt P33764 1-101)
chain: MARPLEQAVAAIVCTFQEYAGRCGDKYKLCQAELKELLQKELATWTPTEFRECDYNKFMSVLDTNKDCEVDFVEYVRSLACLCLYCHEYFKDCPSEPPCSQ
For the molecule B6, the binding result in assay [1], in assay [2], in assay [3], in assay [4] and in assay [5] was “no binding (tested: analyte 62.5 nM to 16 μM)” throughout.

B7: S100B (protein, UniProt P04271 1-92)
chain: MSELEKAMVALIDVFHQYSGREGDKHKLKKSELKELINNELSHFLEEIKEQEVVDKVMETLDNDGDGECDFQEFMAFVAMVTTACHEFFEHE
With B7, the binding entry in assay [1], in assay [2], in assay [3], in assay [4] and in assay [5] was “no binding (tested: analyte 62.5 nM to 16 μM)” each time.

B8: S100P (protein, UniProt P25815 1-95)
chain: MTELETAMGMIIDVFSRYSGSEGSTQTLTKGELKVLMEKELPGFLQSGKDKDAVDKLLKDLDANGDAQVDFSEFIVFVAAITSACHKYFEKAGLK
In the case of B8, the binding result in assay [1], in assay [2], in assay [3], in assay [4] and in assay [5] was “no binding (tested: analyte 62.5 nM to 16 μM)” each time.

B9: S100A16 (protein, UniProt Q96FQ6 1-103)
chain: MSDCYTELEKAVIVLVENFYKYVSKYSLVKNKISKSSFREMLQKELNHMLSDTGNRKAADKLIQNLDANHDGRISFDEYWTLIGGITGPIAKLIHEQEQQSSS
Consider B9, for which the binding result in assay [1], in assay [2], in assay [3], in assay [4] and in assay [5] was “no binding (tested: analyte 62.5 nM to 16 μM)” throughout.

B10: S100A12 (protein, UniProt P80511 1-92)
chain: MTKLEEHLEGIVNIFHQYSVRKGHFDTLSKGELKQLLTKELANTIKNIKDKAVIDEIFQGLDANQDEQVDFQEFISLVAIALKAAHYHTHKE
Regarding B10, the binding result in assay [1], in assay [2], in assay [3], in assay [4] and in assay [5] was “no binding (tested: analyte 62.5 nM to 16 μM)” in each case.

B11: S100A9 (protein, UniProt P06702 1-114)
chain: MTCKMSQLERNIETIINTFHQYSVKLGHPDTLNQGEFKELVRKDLQNFLKKENKNEKVIEHIMEDLDTNADKQLSFEEFIMLMARLTWASHEKMHEGDEGPGHHHKPGLGEGTP
As to B11, the binding result in assay [1], in assay [2], in assay [3], in assay [4] and in assay [5] was “no binding (tested: analyte 62.5 nM to 16 μM)” throughout.

B12: S100A13 (protein, UniProt Q99584 1-98)
chain: MAAEPLTELEESIETVVTTFFTFARQEGRKDSLSVNEFKELVTQQLPHLLKDVGSLDEKMKSLDVNQDSELKFNEYWRLIGELAKEIRKKKDLKIRKK
Regarding B12, the binding entry in assay [1], in assay [2], in assay [3], in assay [4] and in assay [5] was “no binding (tested: analyte 62.5 nM to 16 μM)” throughout.

B13: S100A5 (protein, UniProt P33763 1-92)
chain: METPLEKALTTMVTTFHKYSGREGSKLTLSRKELKELIKKELCLGEMKESSIDDLMKSLDKNSDQEIDFKEYSVFLTMLCMAYNDFFLEDNK
B13: the binding entry in assay [1], in assay [2], in assay [3], in assay [4] and in assay [5] was “no binding (tested: analyte 62.5 nM to 16 μM)” throughout.

B14: S100G (protein, UniProt P29377 1-79)
chain: MSTKKSPEELKRIFEKYAAKEGDPDQLSKDELKLLIQAEFPSLLKGPNTLDDLFQELDKNGDGEVSFEEFQVLVKKISQ
Regarding B14, the binding entry in assay [1], in assay [2], in assay [3], in assay [4] and in assay [5] was “no binding (tested: analyte 62.5 nM to 16 μM)” in each case.
